Data reported in PubChem BioAssay AID248 (DTP/NCI, 2004).
The list does not hold the whole screen: its compounds were picked by chemical class. Other doses and runs of a compound may be missing. T/C: endpoint of the treated group in % of that of the vehicle group. Where survival is the endpoint, this PubChem deposit counts one and a half times the control or more as active, and values a quarter to a half above the control carry no call in these data; other NCI protocols may use other cut-offs. Some entries show no survivor count and are marked so; the dose need not have been tolerated. Schedule codes are those of the source, read here as Q, the interval in days (D) or hours (H), X, the number of doses. Signs of the kind (2×) say how often a value occurs here. Some doses were run more than once; their values stand side by side, smallest first.

Tested on: L1210 leukemia ip in BDF1 mice, survival T/C
Assay: NCI In Vivo Anticancer Drug Screen. Data for tumor model L1210 Leukemia (intraperitoneal) in B6D2F1 (BDF1) mice
Details: T/C endpoint: mean survival time, higher T/C = longer survival

Q: What does the source list for `OCC#CCN(CCCl)CCCl`?
A: T/C (dose: 0.3 mg/kg/injection, schedule: Q01DX001 (ip), vehicle: saline): 106 % of control [survivor count not shown]; T/C (dose: 0.6 mg/kg/injection, schedule: Q01DX001 (ip), vehicle: saline): 110 % of control [survivor count not shown]; T/C (dose: 0.7 mg/kg/injection, schedule: Q01DX009 (ip), vehicle: saline): 129 % of control [survivor count not shown]; T/C (dose: 1.1 mg/kg/injection, schedule: Q01DX009 (ip), vehicle: saline): 137 % of control [survivor count not shown]; T/C (dose: 1.3 mg/kg/injection, schedule: Q01DX001 (ip), vehicle: saline): 117 % of control [survivor count not shown] (2×); T/C (dose: 1.3 mg/kg/injection, schedule: Q01DX009 (ip), vehicle: saline): 121 % of control [survivor count not shown]; T/C (dose: 1.7 mg/kg/injection, schedule: Q01DX009 (ip), vehicle: saline): 116 [survivor count not shown], 117 [survivor count not shown], 151 % of control [survivor count not shown]; T/C (dose: 2.0 mg/kg/injection, schedule: Q01DX001 (ip), vehicle: saline): 117 % of control [survivor count not shown]; T/C (dose: 2.0 mg/kg/injection, schedule: Q01DX009 (ip), vehicle: saline): 131 % of control [survivor count not shown]; T/C (dose: 2.6 mg/kg/injection, schedule: Q01DX001 (ip), vehicle: saline): 119 [survivor count not shown], 128 [survivor count not shown], 132 % of control [survivor count not shown]; T/C (dose: 2.6 mg/kg/injection, schedule: Q01DX009 (ip), vehicle: saline): 87 [survivor count not shown] and 88 % of control [survivor count not shown]; T/C (dose: 3.0 mg/kg/injection, schedule: Q01DX001 (ip), vehicle: saline): 126 % of control [survivor count not shown] (2×); T/C (dose: 3.0 mg/kg/injection, schedule: Q01DX009 (ip), vehicle: saline): 129 % of control [survivor count not shown]; T/C (dose: 4.0 mg/kg/injection, schedule: Q01DX001 (ip), vehicle: saline): 132 [survivor count not shown] and 136 % of control [survivor count not shown]; T/C (dose: 4.5 mg/kg/injection, schedule: Q01DX001 (ip), vehicle: saline): 126 % of control [survivor count not shown]; T/C (dose: 4.5 mg/kg/injection, schedule: Q01DX009 (ip), vehicle: saline): 88 % of control [survivor count not shown]; T/C (dose: 6.0 mg/kg/injection, schedule: Q01DX001 (ip), vehicle: saline): 86 [survivor count not shown], 139 [survivor count not shown], 150 % of control [survivor count not shown]; T/C (dose: 9.0 mg/kg/injection, schedule: Q01DX001 (ip), vehicle: saline): 90 [survivor count not shown] and 129 % of control [survivor count not shown]

Q: How did the T/C (dose: 12.5 mg/kg/injection, schedule: Q04DX003 (ip), vehicle: Klucel (hydroxypropylcellulose) (HPC)) turn out when `N#Cc1ccc(C(=O)CBr)cc1` was run?
A: 89 % of control [survivor count not shown]

Q: What about the T/C (dose: 25.0 mg/kg/injection, schedule: Q04DX003 (ip), vehicle: Klucel (hydroxypropylcellulose) (HPC)) of the same molecule?
A: 93 % of control [survivor count not shown]

Q: What about the T/C (dose: 50.0 mg/kg/injection, schedule: Q04DX003 (ip), vehicle: Klucel (hydroxypropylcellulose) (HPC)) of the same molecule?
A: 94 % of control [survivor count not shown]
